From patent US7705189B2, “Calixarene compound, process for producing the same, intermediate therefor, and composition thereof” (JSR Corporation, priority 2004, dated 2010)

Assay: Cationic photopolymerization with DPSP photoacid generator, conversion by FT-IR
Conditions: for Conversion rate in cationic photopolymerization: irradiation for 360 seconds, 360 nm, 15 mW/cm^2

SMILES: C=COCCOc1cc(OCCOC=C)c2cc1C1CCCC3c4cc(c(OCCOC=C)cc4OCCOC=C)C4CCCC5c6cc(c(OCCOC=C)cc6OCCOC=C)C(CCCC6c7cc(c(OCCOC=C)cc7OCCOC=C)C(CCCC7c8cc(c(OCCOC=C)cc8OCCOC=C)C(CCCC(c8cc(c(OCCOC=C)cc8OCCOC=C)C(CCCC2c2cc4c(OCCOC=C)cc2OCCOC=C)c2cc7c(OCCOC=C)cc2OCCOC=C)c2cc1c(OCCOC=C)cc2OCCOC=C)c1cc6c(OCCOC=C)cc1OCCOC=C)c1cc5c(OCCOC=C)cc1OCCOC=C)c1cc3c(OCCOC=C)cc1OCCOC=C [T3-6]
- Conversion rate in cationic photopolymerization (1 mol % DPSP): 40%
- Conversion rate after heating the irradiated film (5 mol % DPSP, irradiated 360 seconds, then heated at 150° C.): did not improve
- Conversion rate in cationic photopolymerization (5 mol % DPSP): 80%
